Experimental data from the supplement of paper PMC10849652.
The other results are listed elsewhere or left out.

The chains behind the UniProt entries cited, without tags or fusion partners. Where a name states a change or a piece, a line headed by the entry shows the natural chain unless it says otherwise.
UniProt Q8IWV2: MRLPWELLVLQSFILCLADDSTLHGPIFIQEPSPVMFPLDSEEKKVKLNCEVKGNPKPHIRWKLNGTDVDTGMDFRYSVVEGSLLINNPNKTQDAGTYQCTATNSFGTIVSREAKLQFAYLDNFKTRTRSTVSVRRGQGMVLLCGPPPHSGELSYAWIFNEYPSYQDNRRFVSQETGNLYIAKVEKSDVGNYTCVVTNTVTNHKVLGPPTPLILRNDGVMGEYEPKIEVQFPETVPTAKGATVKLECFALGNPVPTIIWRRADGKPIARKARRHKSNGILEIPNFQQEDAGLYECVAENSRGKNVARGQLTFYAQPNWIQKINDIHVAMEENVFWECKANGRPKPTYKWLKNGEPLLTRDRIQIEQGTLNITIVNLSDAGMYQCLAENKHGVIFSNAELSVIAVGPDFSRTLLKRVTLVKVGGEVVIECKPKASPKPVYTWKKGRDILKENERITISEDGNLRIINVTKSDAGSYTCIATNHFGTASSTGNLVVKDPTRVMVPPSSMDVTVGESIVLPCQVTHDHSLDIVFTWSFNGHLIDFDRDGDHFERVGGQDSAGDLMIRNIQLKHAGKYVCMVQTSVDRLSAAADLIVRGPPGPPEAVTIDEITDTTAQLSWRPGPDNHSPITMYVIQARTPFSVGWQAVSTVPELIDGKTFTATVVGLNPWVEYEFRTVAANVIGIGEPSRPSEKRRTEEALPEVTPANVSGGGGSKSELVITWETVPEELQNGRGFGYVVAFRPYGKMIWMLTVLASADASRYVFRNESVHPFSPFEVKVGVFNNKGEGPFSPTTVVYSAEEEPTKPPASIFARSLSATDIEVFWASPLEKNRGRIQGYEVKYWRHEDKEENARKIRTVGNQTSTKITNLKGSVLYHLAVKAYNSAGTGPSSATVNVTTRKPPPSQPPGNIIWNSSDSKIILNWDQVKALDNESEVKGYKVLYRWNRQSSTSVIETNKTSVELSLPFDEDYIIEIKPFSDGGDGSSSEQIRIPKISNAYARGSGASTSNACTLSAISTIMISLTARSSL
UniProt Q8NE01: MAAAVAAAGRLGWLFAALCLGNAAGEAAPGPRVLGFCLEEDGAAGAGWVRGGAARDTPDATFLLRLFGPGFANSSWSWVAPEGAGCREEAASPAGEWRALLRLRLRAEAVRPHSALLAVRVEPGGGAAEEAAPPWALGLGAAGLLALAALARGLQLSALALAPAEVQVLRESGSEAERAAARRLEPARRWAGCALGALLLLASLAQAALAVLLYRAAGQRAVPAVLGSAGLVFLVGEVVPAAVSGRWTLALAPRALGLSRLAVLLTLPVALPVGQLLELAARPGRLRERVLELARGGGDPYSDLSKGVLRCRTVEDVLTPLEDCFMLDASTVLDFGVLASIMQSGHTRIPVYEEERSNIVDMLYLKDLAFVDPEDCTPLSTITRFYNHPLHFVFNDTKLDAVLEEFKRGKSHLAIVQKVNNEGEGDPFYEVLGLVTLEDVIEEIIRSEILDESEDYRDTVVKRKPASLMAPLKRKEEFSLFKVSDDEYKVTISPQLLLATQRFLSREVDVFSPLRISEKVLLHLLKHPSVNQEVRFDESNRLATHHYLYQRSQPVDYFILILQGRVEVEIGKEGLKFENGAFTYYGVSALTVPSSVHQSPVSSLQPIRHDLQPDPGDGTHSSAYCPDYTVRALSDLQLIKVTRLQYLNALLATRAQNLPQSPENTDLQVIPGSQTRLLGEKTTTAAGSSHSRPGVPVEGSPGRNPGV
UniProt Q9UIV1, whole entry, looked up: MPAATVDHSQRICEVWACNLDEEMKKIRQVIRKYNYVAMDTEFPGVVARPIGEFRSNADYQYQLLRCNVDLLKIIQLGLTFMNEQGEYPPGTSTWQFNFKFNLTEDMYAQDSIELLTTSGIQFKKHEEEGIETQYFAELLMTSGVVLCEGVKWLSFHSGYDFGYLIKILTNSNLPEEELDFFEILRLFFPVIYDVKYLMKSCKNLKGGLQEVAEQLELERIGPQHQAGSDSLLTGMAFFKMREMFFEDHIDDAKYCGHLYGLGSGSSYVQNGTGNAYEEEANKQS
UniProt O14967: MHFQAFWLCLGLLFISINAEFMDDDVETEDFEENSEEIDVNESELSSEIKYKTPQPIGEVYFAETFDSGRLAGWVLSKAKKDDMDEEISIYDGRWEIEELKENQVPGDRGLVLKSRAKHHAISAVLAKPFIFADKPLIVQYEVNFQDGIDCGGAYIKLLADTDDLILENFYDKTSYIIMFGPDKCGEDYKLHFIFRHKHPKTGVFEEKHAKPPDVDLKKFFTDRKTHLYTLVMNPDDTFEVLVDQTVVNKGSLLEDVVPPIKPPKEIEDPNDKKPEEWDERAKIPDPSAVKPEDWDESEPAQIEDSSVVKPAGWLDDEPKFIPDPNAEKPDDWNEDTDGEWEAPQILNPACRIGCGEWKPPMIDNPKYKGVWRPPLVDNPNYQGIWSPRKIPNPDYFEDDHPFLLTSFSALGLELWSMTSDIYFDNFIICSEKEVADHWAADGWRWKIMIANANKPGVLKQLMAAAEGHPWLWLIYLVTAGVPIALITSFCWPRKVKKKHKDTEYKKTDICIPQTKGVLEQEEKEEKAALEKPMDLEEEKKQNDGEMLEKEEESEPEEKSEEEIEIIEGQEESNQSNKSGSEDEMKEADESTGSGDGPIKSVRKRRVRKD
UniProt Q9NRP2: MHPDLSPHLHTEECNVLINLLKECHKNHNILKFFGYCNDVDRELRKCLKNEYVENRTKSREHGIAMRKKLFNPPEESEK
UniProt Q99653: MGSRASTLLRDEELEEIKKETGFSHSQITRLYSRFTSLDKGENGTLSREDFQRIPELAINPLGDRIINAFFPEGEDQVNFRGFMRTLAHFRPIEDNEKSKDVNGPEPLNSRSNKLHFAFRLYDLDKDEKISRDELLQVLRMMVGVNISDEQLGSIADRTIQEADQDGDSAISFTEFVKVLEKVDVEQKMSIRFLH
UniProt Q96S66: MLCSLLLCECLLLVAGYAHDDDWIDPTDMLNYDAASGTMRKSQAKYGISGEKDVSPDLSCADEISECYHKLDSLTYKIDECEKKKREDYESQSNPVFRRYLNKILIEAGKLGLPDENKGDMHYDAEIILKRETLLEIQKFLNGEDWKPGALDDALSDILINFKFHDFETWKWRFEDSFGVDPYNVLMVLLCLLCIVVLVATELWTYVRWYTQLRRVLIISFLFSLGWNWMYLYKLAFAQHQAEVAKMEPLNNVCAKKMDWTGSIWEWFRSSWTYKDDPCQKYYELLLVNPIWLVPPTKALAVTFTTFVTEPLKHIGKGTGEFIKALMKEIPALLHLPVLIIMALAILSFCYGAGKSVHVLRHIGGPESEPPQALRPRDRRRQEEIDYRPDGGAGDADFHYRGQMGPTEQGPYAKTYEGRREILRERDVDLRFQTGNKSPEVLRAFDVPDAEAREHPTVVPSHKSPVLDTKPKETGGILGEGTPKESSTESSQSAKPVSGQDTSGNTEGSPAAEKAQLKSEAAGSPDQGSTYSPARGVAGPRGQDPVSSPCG
UniProt Q9NZN8, whole entry, looked up: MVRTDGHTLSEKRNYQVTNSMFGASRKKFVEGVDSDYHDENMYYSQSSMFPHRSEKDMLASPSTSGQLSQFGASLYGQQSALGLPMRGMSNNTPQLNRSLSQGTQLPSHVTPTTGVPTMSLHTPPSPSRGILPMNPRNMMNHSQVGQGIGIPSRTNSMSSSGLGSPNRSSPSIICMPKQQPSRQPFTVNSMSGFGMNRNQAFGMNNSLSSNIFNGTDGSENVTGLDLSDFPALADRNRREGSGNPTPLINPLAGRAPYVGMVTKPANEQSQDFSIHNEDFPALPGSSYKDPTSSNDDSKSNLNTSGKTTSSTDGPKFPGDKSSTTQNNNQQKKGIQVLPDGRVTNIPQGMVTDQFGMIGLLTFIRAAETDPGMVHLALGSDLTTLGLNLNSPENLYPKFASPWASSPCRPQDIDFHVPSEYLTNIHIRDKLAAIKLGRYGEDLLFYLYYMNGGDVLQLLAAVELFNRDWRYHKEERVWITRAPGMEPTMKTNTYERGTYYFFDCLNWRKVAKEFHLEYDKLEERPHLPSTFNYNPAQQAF
UniProt Q9Y696: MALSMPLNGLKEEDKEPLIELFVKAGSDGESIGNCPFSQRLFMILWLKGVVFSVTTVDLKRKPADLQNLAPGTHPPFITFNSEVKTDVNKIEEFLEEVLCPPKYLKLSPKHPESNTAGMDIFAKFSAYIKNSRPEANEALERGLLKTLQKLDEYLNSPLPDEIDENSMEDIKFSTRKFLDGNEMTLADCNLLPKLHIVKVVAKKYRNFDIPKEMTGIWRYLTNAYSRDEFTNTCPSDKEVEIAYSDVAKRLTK
UniProt Q9BW66: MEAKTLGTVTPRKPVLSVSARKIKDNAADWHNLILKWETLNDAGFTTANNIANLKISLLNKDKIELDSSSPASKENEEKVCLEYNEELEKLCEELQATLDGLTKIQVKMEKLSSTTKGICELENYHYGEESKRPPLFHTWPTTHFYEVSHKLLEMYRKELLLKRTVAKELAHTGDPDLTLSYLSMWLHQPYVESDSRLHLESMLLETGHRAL
UniProt Q96KP4: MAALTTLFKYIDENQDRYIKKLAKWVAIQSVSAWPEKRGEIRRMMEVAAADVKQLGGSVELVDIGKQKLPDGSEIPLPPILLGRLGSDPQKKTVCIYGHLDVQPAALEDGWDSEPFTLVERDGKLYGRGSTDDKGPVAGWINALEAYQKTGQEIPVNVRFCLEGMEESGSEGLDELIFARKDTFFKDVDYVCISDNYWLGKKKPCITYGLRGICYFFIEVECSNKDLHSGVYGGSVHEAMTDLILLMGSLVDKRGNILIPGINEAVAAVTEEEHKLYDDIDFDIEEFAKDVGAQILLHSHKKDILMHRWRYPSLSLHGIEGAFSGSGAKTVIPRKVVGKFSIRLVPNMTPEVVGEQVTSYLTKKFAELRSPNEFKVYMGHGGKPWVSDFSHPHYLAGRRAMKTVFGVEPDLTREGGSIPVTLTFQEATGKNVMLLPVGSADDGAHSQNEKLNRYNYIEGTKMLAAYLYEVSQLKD
UniProt Q9P2E5: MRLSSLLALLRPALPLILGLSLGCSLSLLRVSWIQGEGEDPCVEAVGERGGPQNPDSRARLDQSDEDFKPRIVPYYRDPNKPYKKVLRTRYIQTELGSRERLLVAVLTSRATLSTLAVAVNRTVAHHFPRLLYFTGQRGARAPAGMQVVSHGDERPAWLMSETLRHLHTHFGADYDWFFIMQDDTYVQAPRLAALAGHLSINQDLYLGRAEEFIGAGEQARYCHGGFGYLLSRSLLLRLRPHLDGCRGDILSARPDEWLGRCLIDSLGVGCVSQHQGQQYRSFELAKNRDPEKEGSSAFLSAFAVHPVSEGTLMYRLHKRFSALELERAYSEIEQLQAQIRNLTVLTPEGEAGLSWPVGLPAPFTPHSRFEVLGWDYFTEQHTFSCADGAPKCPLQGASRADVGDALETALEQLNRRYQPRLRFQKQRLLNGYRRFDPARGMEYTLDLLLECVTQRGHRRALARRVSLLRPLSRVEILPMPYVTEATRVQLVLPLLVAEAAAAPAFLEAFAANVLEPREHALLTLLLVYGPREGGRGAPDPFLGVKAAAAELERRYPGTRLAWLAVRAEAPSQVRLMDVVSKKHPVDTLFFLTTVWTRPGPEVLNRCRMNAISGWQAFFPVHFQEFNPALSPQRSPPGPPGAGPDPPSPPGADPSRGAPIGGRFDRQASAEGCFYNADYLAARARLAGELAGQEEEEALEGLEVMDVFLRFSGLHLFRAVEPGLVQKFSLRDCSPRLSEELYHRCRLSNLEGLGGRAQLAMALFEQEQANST
UniProt P51798: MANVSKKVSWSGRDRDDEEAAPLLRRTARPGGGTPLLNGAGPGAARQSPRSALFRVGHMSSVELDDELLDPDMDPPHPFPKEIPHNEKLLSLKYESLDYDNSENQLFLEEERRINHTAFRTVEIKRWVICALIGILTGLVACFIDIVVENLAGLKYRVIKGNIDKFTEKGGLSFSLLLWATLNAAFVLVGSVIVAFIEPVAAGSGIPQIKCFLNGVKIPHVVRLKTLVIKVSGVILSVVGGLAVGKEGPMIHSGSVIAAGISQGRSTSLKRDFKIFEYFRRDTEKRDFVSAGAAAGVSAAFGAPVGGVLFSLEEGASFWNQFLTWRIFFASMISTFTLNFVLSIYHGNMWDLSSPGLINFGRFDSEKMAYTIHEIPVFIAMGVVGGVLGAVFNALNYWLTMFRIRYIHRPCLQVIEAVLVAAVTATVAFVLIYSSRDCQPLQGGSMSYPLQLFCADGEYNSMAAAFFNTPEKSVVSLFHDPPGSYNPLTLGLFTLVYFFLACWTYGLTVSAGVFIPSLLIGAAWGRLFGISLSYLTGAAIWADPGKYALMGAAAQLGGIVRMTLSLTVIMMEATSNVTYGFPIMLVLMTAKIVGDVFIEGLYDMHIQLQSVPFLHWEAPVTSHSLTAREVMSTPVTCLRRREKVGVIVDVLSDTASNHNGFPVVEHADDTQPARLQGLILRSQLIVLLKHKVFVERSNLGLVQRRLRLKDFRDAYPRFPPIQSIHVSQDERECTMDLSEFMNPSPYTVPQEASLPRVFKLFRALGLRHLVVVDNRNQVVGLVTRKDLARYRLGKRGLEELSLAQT

The targets below were run with Cc1ncc(-c2ccnc(Nc3ccc(S(C)(=O)=O)cc3)n2)n1C(C)C (assay: log2 fold change, soluble protein after heating vs DMSO (PISA); higher = thermal stabilisation; K562 cells, 10 uM, 30 min; active = over 0.2 and 3.5 SD of the protein, either way, in both replicates (recomputed)).
How it was run: (§1)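 Values are thermal stability changes relative to control samples and are taken from duplicates. They are stated as log2 fold changes. Before quantification by TMTpro 16plex LC-MS/MS with equalised channel sums, K562 cells at 2×10^6 cells/mL were treated with 10 μM compound for 30 min, heated in aliquots for 3 min across 48°C-58°C, pooled, extracted in PBS with 0.5% NP-40 at 4°C, and centrifuged at 21,000xg for 90 min to give the soluble supernatant.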
For CNTN4 (UniProt Q8IWV2), the log2 fold change was inactive: -0.13. With CLPTM1L (UniProt Q96KA5) the log2 fold change was inactive: -0.016. In the case of COA7 (UniProt Q96BR5), the log2 fold change is reported as inactive: 0.006. With CLIP1 isoform 1 (UniProt P30622) the log2 fold change was inactive: -0.018. For CNNM3 (UniProt Q8NE01), the log2 fold change was inactive: 0.104. With CNOT7 (UniProt Q9UIV1) the log2 fold change was inactive: 0.002. For CIZ1 (UniProt Q9ULV3), the log2 fold change was inactive: -0.063. CLGN (UniProt O14967) was tested, and the log2 fold change was inactive: -0.014. With CHORDC1 (UniProt Q9UHD1) the log2 fold change was inactive: 0.01. For CMC2 (UniProt Q9NRP2), the log2 fold change was inactive: -0.031. For CLN8 (UniProt Q9UBY8), the log2 fold change was inactive: -0.083. With CHP1 (UniProt Q99653) the log2 fold change was inactive: 0.004. In the case of CKAP5 (UniProt Q14008), the log2 fold change is reported as inactive: -0.014. With CLTB (UniProt P09497) the log2 fold change was inactive: 0.005. In the case of CLIP4 (UniProt Q8N3C7), the log2 fold change is reported as inactive: 0.071. CLNS1A (UniProt P54105) was tested, and the log2 fold change was inactive: -0.045. In the case of CLCC1 (UniProt Q96S66), the log2 fold change is reported as inactive: -0.022. For COL1A2 (UniProt P08123), the log2 fold change was inactive: 0.238. In the case of CLPP (UniProt Q16740), the log2 fold change is reported as inactive: -0.016. CLUH, A0A494C0R8 was tested, and the log2 fold change was inactive: 0. For CLIC2 (UniProt O15247), the log2 fold change was inactive: 0.008. CNOT2 (UniProt Q9NZN8) was tested, and the log2 fold change was inactive: 0.01. In the case of CMBL (UniProt Q96DG6), the log2 fold change is reported as inactive: -0.008. In the case of CLIC4 (UniProt Q9Y696), the log2 fold change is reported as inactive: -0.025. CINP isoform 3 (UniProt Q9BW66) was tested, and the log2 fold change was inactive: 0.01. In the case of CLIC1 (UniProt O00299), the log2 fold change is reported as inactive: -0.005. With CNDP2 (UniProt Q96KP4) the log2 fold change was inactive: -0.041. CNN2 (UniProt Q99439) was tested, and the log2 fold change was inactive: 0.006. For CHPF2 (UniProt Q9P2E5), the log2 fold change was inactive: 0.064. With CIAO3 (UniProt Q9H6Q4) the log2 fold change was inactive: 0.004. In the case of CLCN7 (UniProt P51798), the log2 fold change is reported as inactive: -0.111. With CNTNAP4 (UniProt Q9C0A0) the log2 fold change was inactive: -0.08.

The targets below were run with Cn1cc(-c2ccc3c(c2)CCN3C(=O)Cc2cccc(C(F)(F)F)c2)c2c(N)ncnc21 in the same assay as above.
How it was run: as §1
In the case of CNTN4 (UniProt Q8IWV2), the log2 fold change is reported as inactive: 0.131. CLPTM1L (UniProt Q96KA5) was tested, and the log2 fold change was inactive: -0.042. COA7 (UniProt Q96BR5) was tested, and the log2 fold change was inactive: 0.009. CLIP1 isoform 1 (UniProt P30622) was tested, and the log2 fold change was inactive: 0.008. For CNNM3 (UniProt Q8NE01), the log2 fold change was inactive: 0.041. With CNOT7 (UniProt Q9UIV1) the log2 fold change was inactive: -0.034. CIZ1 (UniProt Q9ULV3) was tested, and the log2 fold change was inactive: 0.021. For CLGN (UniProt O14967), the log2 fold change was inactive: -0.167. With CHORDC1 (UniProt Q9UHD1) the log2 fold change was inactive: 0.058. CMC2 (UniProt Q9NRP2) was tested, and the log2 fold change was inactive: -0.015. With CLN8 (UniProt Q9UBY8) the log2 fold change was inactive: 0.258. With CHP1 (UniProt Q99653) the log2 fold change was inactive: 0.043. CKAP5 (UniProt Q14008) was tested, and the log2 fold change was inactive: -0.02. With CLTB (UniProt P09497) the log2 fold change was inactive: -0.02. CLIP4 (UniProt Q8N3C7) was tested, and the log2 fold change was inactive: 0.078. CLNS1A (UniProt P54105) was tested, and the log2 fold change was inactive: 0.08. CLCC1 (UniProt Q96S66) was tested, and the log2 fold change was inactive: 0.057. In the case of COL1A2 (UniProt P08123), the log2 fold change is reported as inactive: 0.036. CLPP (UniProt Q16740) was tested, and the log2 fold change was inactive: 0.115. In the case of CLUH, A0A494C0R8, the log2 fold change is reported as inactive: -0.018. With CLIC2 (UniProt O15247) the log2 fold change was inactive: 0.034. In the case of CNOT2 (UniProt Q9NZN8), the log2 fold change is reported as inactive: -0.055. In the case of CMBL (UniProt Q96DG6), the log2 fold change is reported as inactive: -0.048. In the case of CLIC4 (UniProt Q9Y696), the log2 fold change is reported as inactive: 0.04. In the case of CINP isoform 3 (UniProt Q9BW66), the log2 fold change is reported as inactive: -0.018. For CLIC1 (UniProt O00299), the log2 fold change was inactive: 0.024. In the case of CNDP2 (UniProt Q96KP4), the log2 fold change is reported as inactive: 0.066. In the case of CNN2 (UniProt Q99439), the log2 fold change is reported as inactive: 0.011. With CHPF2 (UniProt Q9P2E5) the log2 fold change was inactive: -0.125. In the case of CIAO3 (UniProt Q9H6Q4), the log2 fold change is reported as inactive: 0.082. In the case of CLCN7 (UniProt P51798), the log2 fold change is reported as inactive: 0.011. In the case of CNTNAP4 (UniProt Q9C0A0), the log2 fold change is reported as inactive: -0.27.

What follows are targets tested with Cn1cc(-c2ccc3nnc(C(F)(F)c4ccc5ncccc5c4)n3n2)cn1 in the same assay as above.
How it was run: as §1
In the case of CNTN4 (UniProt Q8IWV2), the log2 fold change is reported as inactive: 0.032. CLPTM1L (UniProt Q96KA5) was tested, and the log2 fold change was inactive: 0.011. In the case of COA7 (UniProt Q96BR5), the log2 fold change is reported as inactive: 0.02. CLIP1 isoform 1 (UniProt P30622) was tested, and the log2 fold change was inactive: 0.012. In the case of CNNM3 (UniProt Q8NE01), the log2 fold change is reported as inactive: 0.031. In the case of CNOT7 (UniProt Q9UIV1), the log2 fold change is reported as inactive: -0.051. For CIZ1 (UniProt Q9ULV3), the log2 fold change was inactive: -0.066. In the case of CLGN (UniProt O14967), the log2 fold change is reported as inactive: -0.139. For CHORDC1 (UniProt Q9UHD1), the log2 fold change was inactive: -0.003. CMC2 (UniProt Q9NRP2) was tested, and the log2 fold change was inactive: 0.124. CLN8 (UniProt Q9UBY8) was tested, and the log2 fold change was inactive: 0.266. In the case of CHP1 (UniProt Q99653), the log2 fold change is reported as inactive: -0.116. CKAP5 (UniProt Q14008) was tested, and the log2 fold change was inactive: -0.056. In the case of CLTB (UniProt P09497), the log2 fold change is reported as inactive: -0.019. CLIP4 (UniProt Q8N3C7) was tested, and the log2 fold change was inactive: 0.255. With CLNS1A (UniProt P54105) the log2 fold change was inactive: 0.022. In the case of CLCC1 (UniProt Q96S66), the log2 fold change is reported as inactive: 0.021. With COL1A2 (UniProt P08123) the log2 fold change was inactive: -0.013. With CLPP (UniProt Q16740) the log2 fold change was inactive: 0.02. CLUH, A0A494C0R8 was tested, and the log2 fold change was active: 0.532. With CLIC2 (UniProt O15247) the log2 fold change was inactive: -0.002. CNOT2 (UniProt Q9NZN8) was tested, and the log2 fold change was inactive: 0.022. With CMBL (UniProt Q96DG6) the log2 fold change was inactive: 0.04. In the case of CLIC4 (UniProt Q9Y696), the log2 fold change is reported as inactive: -0.006. In the case of CINP isoform 3 (UniProt Q9BW66), the log2 fold change is reported as inactive: 0.044. In the case of CLIC1 (UniProt O00299), the log2 fold change is reported as inactive: 0.01. For CNDP2 (UniProt Q96KP4), the log2 fold change was inactive: 0.032. For CNN2 (UniProt Q99439), the log2 fold change was inactive: 0.044. In the case of CHPF2 (UniProt Q9P2E5), the log2 fold change is reported as inactive: 0.07. In the case of CIAO3 (UniProt Q9H6Q4), the log2 fold change is reported as inactive: 0.034. CLCN7 (UniProt P51798) was tested, and the log2 fold change was inactive: 0.049. In the case of CNTNAP4 (UniProt Q9C0A0), the log2 fold change is reported as inactive: -0.12.
